The record followed here is paper doi:10.1101/720508.

Chains of the proteins cited; added tags and fusions are not shown.
UniProt P63094: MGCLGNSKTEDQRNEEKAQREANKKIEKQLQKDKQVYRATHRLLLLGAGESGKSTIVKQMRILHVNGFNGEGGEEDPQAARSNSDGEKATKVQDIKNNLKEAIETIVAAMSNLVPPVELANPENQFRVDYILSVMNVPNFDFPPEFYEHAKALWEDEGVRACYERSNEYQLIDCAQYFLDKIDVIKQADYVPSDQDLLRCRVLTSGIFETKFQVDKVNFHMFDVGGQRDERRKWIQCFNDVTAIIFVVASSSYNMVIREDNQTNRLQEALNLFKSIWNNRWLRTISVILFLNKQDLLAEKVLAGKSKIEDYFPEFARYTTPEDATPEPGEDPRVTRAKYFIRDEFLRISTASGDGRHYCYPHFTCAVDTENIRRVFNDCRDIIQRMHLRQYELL
UniProt P47746: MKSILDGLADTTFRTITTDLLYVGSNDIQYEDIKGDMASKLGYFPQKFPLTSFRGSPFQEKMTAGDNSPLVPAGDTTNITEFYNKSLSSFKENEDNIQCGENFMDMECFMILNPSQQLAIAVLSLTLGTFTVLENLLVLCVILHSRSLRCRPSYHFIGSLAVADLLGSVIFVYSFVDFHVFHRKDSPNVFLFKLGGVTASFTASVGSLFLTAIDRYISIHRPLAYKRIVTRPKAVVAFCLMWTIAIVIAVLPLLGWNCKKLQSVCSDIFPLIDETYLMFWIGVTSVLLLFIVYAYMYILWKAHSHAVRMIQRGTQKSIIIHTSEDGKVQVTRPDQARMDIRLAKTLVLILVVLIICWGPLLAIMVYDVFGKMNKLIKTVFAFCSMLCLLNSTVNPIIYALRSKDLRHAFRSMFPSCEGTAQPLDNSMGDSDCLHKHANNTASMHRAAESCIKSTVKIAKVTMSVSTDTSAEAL

This experiment concerns the target T1, GPR151 (mouse (endogenous in IPN)) (UniProt Q7TSN6).
T1 sequence: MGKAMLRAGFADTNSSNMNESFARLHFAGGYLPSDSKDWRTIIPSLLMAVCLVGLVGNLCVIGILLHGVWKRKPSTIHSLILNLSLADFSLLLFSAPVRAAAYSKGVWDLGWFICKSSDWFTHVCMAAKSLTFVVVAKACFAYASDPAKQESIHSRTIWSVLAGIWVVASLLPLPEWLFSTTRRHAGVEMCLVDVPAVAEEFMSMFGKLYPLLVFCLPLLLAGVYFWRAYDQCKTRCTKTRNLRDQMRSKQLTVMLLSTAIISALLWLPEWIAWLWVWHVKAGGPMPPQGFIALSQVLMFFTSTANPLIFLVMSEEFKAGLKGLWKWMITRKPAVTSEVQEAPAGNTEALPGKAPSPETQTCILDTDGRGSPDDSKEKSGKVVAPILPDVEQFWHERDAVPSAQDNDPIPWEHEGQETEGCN
Put plainly: co-IP.

No constants are given. Whether binding was seen depends on the method and setting. In cells and extracts the contact can be indirect.

On to “G-alpha stimulatory subunit (Gαs) (from UniProt P63094 1-394)”, for which the binding result is listed as “no binding”.

In the case of “cannabinoid receptor 1 (CB1R) (from UniProt P47746 1-473)”, the binding entry is “no binding”.
